Measurements taken from publication PMC8900822 (Acta Crystallographica. Section D, Structural Biology, 2022).

Target: T1, SmCA (Schistosoma mansoni, UniProt A0A4Y5UX87, S271R)
T1 sequence (A0A4Y5UX87 21-298 S271R): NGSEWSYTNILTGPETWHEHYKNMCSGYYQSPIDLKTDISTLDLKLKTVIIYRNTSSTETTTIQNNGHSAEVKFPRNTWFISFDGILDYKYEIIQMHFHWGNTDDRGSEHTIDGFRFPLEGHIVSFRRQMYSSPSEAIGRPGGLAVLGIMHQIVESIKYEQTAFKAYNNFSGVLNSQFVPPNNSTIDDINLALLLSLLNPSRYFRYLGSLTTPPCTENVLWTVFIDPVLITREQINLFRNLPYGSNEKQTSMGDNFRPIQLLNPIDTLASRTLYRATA
Experiment: biochemical

CC(=O)Nc1nnc(S(N)(=O)=O)s1 [AAZ, acetazolamide]
Ki: 42.5 nM
